Results are given in words; binding and its absence hold for the method and conditions named. In cells and extracts the contact can be indirect. Some entries that bind do so weakly or less than the wild type.

By UniProt entry, the sequences of proteins in these tests, tags left out.
UniProt Q921F2: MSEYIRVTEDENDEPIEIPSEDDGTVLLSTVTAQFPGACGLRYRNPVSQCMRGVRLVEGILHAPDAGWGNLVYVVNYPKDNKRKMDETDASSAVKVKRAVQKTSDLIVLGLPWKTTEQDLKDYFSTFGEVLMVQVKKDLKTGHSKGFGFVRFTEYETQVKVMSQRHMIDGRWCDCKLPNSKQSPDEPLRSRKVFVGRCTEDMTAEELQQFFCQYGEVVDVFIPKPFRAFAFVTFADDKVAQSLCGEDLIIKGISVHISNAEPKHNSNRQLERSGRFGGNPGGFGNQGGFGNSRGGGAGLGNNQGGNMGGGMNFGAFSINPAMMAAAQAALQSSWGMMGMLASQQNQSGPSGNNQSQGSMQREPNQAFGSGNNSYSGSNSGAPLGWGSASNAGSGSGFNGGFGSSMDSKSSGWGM

One molecule from article PMC7681104 can be followed below.

The assay concerns the target TAR DNA-binding protein 43 (mouse (endogenous in adult mouse brain and primary mouse cortical neurons)) (UniProt Q921F2). Description: co-IP; whole brain lysates of adult mice in RIPA lysis buffer; Catch and Release v2.0 Reversible Immunoprecipitation System with 4 ug anti-TDP-43 or 4 ug anti-FMRP; western blot. In general terms: Immunoblotting shows a protein as a band on a membrane.

B1: Staufen 2 (protein, UniProt Q8CJ67 1-570)
chain: MANPKEKTPVCLVNELARFHSIQPQYKLLNESGPAHSKMFSVQLSLGEQTWESEGSSIKKAQQAVANKALTESTLPKPVQKPPKSNVNNNPGSITPTVELNGLAMKRGEPAIYRPLDPKPFPNYRANYNFRGMYNQRYHCPMPKIFYVQLTVGNNEFFGEGKTRQAARHNAAMKALQALQNEPIPEKSPQNGESGKEMDDDKDANKSEISLVFEIALKRNMPVSFEVIKESGPPHMKSFVTRVSVGEFSAEGEGNSKKLSKKRAATTVLQELKKLPPLPVVEKPKLFFKKRPKTIVKAGPDYGQGMNPISRLAQIQQARKEKEPDYILLSERGMPRRREFVMQVKVGNEVATGTGPNKKIAKKNAAEAMLLQLGYKASTSLQDPLDKTGENKGWSGPKPGFPEPTNNTPKGILHLSPDVYQEMEASRHRVTSGTTLSYLSPKDMNQPSSSFFSVSPSSTSSATVARELLMNGTSPTAEAIGLKGSSPTSPCSSVQPSKQLEYLARIQGFQAALSALKQFSEQGLESIDGAVNVEKGSLEKQAKHLREKADNNQAKPASISQDCKKSKSAI
Turning to B1, the binding result is “binds”.
